Reference: article PMC11024185
Positions count from the first letter of the chain named. No constants are given. Whether binding was seen depends on the method and setting. Binding seen in cells or lysates may run through a third protein. These calls come from enrichment with a bait or labelling near it, and not all partners need be listed. For some assays here: Where a sequence is shown, tags or fusion partners need not be part of it.

Experiments:
[1] = biological target: T1, Dbp10 (2xStrep-bdNEDD8-DBP10) (S. cerevisiae) (UniProt Q12389); assay: affinity purification with mass spectrometry; split-tag purification of pre-60S particles from SPB4-AID yeast without and with auxin (0.5 mM IAA, 45 min): IgG Sepharose on Noc2-2xProteinA, 3C cleavage, then Strep-Tactin on 2xStrep-Dbp10; buffers with 50 µM ADP-BeF3; Coomassie-stained 4-20% SDS-PAGE, bands named by molecular weight, ambiguous bands by mass spectrometry; auxin gave ~10-fold enrichment of the particle
T1 sequence: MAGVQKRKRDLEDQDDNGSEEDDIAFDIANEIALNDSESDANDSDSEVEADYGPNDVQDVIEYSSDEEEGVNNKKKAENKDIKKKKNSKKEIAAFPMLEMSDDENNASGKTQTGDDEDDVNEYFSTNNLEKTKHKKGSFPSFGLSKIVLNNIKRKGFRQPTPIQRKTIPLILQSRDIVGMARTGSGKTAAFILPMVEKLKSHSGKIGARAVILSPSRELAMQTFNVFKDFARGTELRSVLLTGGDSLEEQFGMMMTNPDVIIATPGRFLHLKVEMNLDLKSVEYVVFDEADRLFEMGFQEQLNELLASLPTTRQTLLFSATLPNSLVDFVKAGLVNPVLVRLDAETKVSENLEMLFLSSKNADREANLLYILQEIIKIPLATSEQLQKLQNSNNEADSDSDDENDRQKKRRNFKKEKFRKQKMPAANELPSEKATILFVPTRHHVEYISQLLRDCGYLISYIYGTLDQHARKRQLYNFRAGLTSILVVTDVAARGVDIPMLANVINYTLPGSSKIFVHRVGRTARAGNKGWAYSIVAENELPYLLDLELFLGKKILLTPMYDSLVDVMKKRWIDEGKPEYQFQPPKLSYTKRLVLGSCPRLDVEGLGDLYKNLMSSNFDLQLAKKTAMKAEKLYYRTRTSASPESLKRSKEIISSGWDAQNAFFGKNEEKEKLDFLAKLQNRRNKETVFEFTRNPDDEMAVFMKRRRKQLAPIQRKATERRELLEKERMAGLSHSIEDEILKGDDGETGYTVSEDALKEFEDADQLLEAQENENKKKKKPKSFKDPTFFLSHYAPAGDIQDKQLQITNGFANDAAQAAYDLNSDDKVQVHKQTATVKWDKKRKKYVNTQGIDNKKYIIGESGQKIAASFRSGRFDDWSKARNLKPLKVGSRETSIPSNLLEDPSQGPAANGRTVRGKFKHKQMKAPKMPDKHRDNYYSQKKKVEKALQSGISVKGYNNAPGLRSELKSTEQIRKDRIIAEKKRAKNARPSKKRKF

[2] = biological target: T2, Dbp10 (wild type, overexpressed, N-terminal 3xStrep-sfGFP-bdNEDD-MYC tag) (S. cerevisiae) (UniProt Q12389); assay: affinity purification with mass spectrometry; split tags on Brx1 and Dbp10 from yeast lysate after β-estradiol-induced overexpression of DBP10 or dbp10^R522V: IgG Sepharose (Brx1-2xProteinA), 3C protease cleavage, Strep-Tactin (Dbp10), elution with bdNEDD8 protease; Ribo-buffer (50 mM Bis-Tris-Propane HCl pH 8.0, 125 mM NaCl, 25 mM KCl, 10 mM MgCl2, 1 mM TCEP, NP-40); semi-quantitative mass spectrometry of pre-60S particles
T2 sequence: T1 sequence

[3] = biological target: T3, Dbp10^R522V (slow-hydrolysis mutant, overexpressed, N-terminal 3xStrep-sfGFP-bdNEDD-MYC tag) (S. cerevisiae) (UniProt Q12389); assay: as above
T3 sequence: T1 sequence with R522V

[4] = biological target: T4, Drs1 R569Q (3x-Strep-Drs1 R569Q) (S. cerevisiae) (UniProt P32892); assay: affinity purification with mass spectrometry; purification of pre-60S intermediates from a drs1 R569Q strain by tags on Drs1 R569Q (3x-Strep) and Ssf1 (2x-ProtA); Coomassie-stained 4-20% SDS-PAGE
T4 sequence: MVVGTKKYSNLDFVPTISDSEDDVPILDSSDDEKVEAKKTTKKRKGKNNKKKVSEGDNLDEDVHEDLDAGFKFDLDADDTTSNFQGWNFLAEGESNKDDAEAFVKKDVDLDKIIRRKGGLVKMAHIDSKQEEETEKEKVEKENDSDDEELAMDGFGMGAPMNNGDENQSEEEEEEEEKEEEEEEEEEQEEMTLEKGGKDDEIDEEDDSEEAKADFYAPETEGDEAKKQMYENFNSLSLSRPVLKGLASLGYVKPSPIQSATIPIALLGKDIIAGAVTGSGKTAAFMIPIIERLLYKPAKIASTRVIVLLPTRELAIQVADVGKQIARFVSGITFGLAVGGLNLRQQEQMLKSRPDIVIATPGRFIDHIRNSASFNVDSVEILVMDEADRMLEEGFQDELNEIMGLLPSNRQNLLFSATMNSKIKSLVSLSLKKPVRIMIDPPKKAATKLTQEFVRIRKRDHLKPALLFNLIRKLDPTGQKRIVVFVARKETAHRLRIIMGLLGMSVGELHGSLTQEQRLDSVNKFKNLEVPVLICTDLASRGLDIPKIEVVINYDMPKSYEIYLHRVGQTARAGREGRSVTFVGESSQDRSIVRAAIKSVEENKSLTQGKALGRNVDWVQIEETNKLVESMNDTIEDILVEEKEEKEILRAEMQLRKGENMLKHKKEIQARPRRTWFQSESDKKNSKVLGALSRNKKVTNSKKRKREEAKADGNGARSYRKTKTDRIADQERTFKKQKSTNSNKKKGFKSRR

[5] = biological target: T1, Dbp10 (2xStrep-bdNEDD8-DBP10) (S. cerevisiae); assay: affinity purification with mass spectrometry; split-tag purification of pre-60S particles from steady state DBP10 yeast: IgG Sepharose on Ssf1-2xProteinA, 3C cleavage, then Strep-Tactin on 2xStrep-Dbp10, desthiobiotin elution; buffers with 50 µM ADP-BeF3; Coomassie-stained 4-20% SDS-PAGE, bands named by molecular weight, ambiguous bands by mass spectrometry
[6] = biological target: T5, Dbp10 R522V (sfGFP-3xSTREP-bdNEDD8-MYC-dbp10 R522V) (S. cerevisiae) (UniProt Q12389); assay: affinity purification with mass spectrometry; split-tag purification of pre-60S particles from yeast overexpressing dbp10 R522V (β-estradiol, 1 h): IgG Sepharose on Ssf1-2xProteinA, 3C cleavage, then Strep-Tactin on Dbp10 R522V, bdNEDD8 protease elution; 50 mM Bis-Tris-Propane pH 8.0, 125 mM NaCl, 25 mM KCl, 10 mM MgCl2; Coomassie-stained 4-20% SDS-PAGE, bands named by molecular weight, ambiguous bands by mass spectrometry
T5 sequence: T1 sequence with R522V

Measured: binding

B1: Noc3 (protein, UniProt Q07896 1-663)
chain: MAKRNRSQFRIQERTAKKRKHEDSLLEGNVFQNAPEDMDENTIYSAKGSSWDEEEQDYEMVPRKNRSDTSNLVEGLPIKVNGKVERKLHKAQEKPKDDDEEDEDSNDSSEDDEGPNEEQEAEAKEDEPDTEEKILQLKEDIADLVTKVMEEPEENTAALGRLCKMVESKNPNTCKFSMLALVPVFKSIIPGYRIRPLTETEKKEKVSKEVSKLRNFEQALVYNYKNYVGRLQSLSKTPSNAAPIQVSLGILATQAAKELISTASHFNFRTDIFTLLLRRICKPRISTDPTSIQIIQTFETLLNEDEEGSISFEILRIFNKILKTRNFNIEESVLNMLLSLDVLHDYDPNTKLKGNVSAPKLKKKDRVHLSKKQRKARKEMQQIEEEMRNAEQAVSAEERERNQSEILKIVFTIYLNILKNNAKTLIGSVLEGLTKFGNMANFDLLGDFLEVMKELISDTEFDNLSSAEVRKALLCIVSAFSLISNTQYMKVNVDLSKFVDGLYALLPYICLDADIELSYRSLRLADPLNNEIIKPSVNVSTKAELLLKALDHVFFRSKSGTKERATAFTKRLYMCISHTPEKTSIAILKFIDKLMNRYPEISGLYSSEDRIGNGHFIMEADNPSRSNPEAATLWDNALLEKHYCPVVTKGLRSLSSRSKECSK
binds: [1] | [2] | [3]

B2: Rrp14 (protein, UniProt P36080 1-434)
chain: MSNSLEERLRANSSAFDGLLALIPAKYYYDEKSQEQWKAKKKTKEQSKNDKLKKLDPEQRDDETSSTLEVMKKKEKDAKPVVLPGEKFKHMKMQKQKEATSKVEGDSDLNVEVNDPMIIAPDEDEEEEEDIKVIFDDEGNEIPLESKKDTTEPDRSVEKKSITEEEKLQRKKNLEALRSKLQAKISDMKSKRKAPGSREAILAQRKRKEELKKRKRLESEQEQDQDEIASDSDMEDIDSDLENNSKKRFKKGKKDSEINADGVMFQNIIFDDGARATSDLQRLRKAGRTKGPAKNDVKSHLKLLEAKKNKMEAKDELEQIKQKEKEKWQKAMLQAEGIKIRDDEKLLRKAIKRKEAQKRKSAIEWSERKRVVEDTISERQKRREENLRIRKDNKGKKRNKQEKMKRKYVGSAVPKKRAGFEGRLKTGKKKGGPK
binds: [4] | [5] | [6] | [2] | [3]
